# From publication PMC5948853
# Amino acid sequences for entries named in this document (tags omitted). A change or cut given only in a name is not applied to a line headed by its entry. Residues count along the entry.
# UniProt P42224: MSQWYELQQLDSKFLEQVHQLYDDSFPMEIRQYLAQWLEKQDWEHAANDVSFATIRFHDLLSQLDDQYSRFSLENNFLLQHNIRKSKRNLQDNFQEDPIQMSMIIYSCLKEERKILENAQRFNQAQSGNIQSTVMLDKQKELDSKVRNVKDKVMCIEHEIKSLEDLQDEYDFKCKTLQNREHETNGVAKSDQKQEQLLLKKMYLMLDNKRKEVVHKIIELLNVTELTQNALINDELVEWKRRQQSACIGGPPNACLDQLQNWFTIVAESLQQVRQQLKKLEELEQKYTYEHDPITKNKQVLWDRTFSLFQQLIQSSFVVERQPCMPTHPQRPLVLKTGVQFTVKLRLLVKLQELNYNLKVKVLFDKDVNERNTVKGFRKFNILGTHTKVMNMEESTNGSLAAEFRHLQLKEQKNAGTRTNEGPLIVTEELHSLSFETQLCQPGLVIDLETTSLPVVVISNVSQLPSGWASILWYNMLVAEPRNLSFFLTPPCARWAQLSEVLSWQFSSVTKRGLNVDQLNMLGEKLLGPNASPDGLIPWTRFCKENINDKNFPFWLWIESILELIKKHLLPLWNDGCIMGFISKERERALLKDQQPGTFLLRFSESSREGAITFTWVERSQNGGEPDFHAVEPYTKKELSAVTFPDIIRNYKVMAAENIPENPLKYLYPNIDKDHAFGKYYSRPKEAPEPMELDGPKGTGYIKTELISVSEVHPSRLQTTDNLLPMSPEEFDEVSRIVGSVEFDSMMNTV
# STAT1β-myc (signal transducer and activator of transcription 1, isoform β): residues 1-712 of P42224
# UniProt P37023, residues 22-503: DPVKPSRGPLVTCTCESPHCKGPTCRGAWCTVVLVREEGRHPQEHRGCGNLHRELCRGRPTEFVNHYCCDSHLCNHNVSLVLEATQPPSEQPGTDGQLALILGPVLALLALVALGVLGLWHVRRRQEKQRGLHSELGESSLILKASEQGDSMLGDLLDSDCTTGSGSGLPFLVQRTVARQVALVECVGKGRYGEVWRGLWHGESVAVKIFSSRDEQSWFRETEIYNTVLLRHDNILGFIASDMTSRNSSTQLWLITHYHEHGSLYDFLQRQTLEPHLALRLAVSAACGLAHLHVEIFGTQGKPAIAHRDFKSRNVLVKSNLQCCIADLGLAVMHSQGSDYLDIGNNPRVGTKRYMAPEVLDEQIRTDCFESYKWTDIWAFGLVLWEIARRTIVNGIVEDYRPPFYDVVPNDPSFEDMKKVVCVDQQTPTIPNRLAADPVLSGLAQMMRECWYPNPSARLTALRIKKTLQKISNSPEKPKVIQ
# UniProt P37173, residues 23-567: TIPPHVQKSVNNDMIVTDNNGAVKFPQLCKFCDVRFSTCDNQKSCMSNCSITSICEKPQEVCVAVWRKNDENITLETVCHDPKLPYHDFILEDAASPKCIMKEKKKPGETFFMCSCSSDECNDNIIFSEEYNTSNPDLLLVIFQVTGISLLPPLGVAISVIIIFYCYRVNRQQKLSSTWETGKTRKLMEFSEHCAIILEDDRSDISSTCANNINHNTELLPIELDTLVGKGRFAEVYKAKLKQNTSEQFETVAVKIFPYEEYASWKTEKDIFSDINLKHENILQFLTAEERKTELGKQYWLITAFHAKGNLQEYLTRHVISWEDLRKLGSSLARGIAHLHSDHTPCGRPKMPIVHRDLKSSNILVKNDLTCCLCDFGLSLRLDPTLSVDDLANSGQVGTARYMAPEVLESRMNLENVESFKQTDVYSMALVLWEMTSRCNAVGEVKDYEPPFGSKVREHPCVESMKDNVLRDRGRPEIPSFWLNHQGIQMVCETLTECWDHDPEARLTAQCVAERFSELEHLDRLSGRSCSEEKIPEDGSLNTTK
# Results are given in words; binding and its absence hold for the method and conditions named. In cells and extracts the contact can be indirect. Some entries that bind do so weakly or less than the wild type. Tags and fused reporters may be left off the sequences shown.
# B1: ALK5-HA (activin receptor-like kinase 5, TGF-β type I receptor) (receptor, UniProt P36897 34-503)
# chain: LQCFCHLCTKDNFTCVTDGLCFVSVTETTDKVIHNSMCIAEIDLIPRDRPFVCAPSSKTGSVTTTYCCNQDHCNKIELPTTVKSSPGLGPVELAAVIAGPVCFVCISLMLMVYICHNRTVIHHRVPNEEDPSLDRPFISEGTTLKDLIYDMTTSGSGSGLPLLVQRTIARTIVLQESIGKGRFGEVWRGKWRGEEVAVKIFSSREERSWFREAEIYQTVMLRHENILGFIAADNKDNGTWTQLWLVSDYHEHGSLFDYLNRYTVTVEGMIKLALSTASGLAHLHMEIVGTQGKPAIAHRDLKSKNILVKKNGTCCIADLGLAVRHDSATDTIDIAPNHRVGTKRYMAPEVLDDSINMKHFESFKRADIYAMGLVFWEIARRCSIGGIHEDYQLPYYDLVPSDPSVEEMRKVVCEQKLRPNIPNRWQSCEALRVMAKIMRECWYANGAARLTALRIKKTLSQLSQQEGIKM
# Assays:
# [1] = target: STAT1α-myc (signal transducer and activator of transcription 1, isoform α) (UniProt P42224); experiment: co-IP; HEK-293T co-transfected with STAT1α-myc or STAT1β-myc and ALK1-HA, ALK5-HA or TβRII-HA, 48 h; RIPA lysate (500 μg protein) with anti-Myc or anti-HA IP affinity gel overnight at 4 °C; immunoblot with anti-HA or anti-myc; also in the absence or presence of TGF-β1 (10 ng/ml) for 24 and 48 h
# [2] = target: STAT1β-myc (signal transducer and activator of transcription 1, isoform β) (UniProt P42224); experiment: as above
Molecule,binding [1],binding [2]
"ALK1-HA (activin receptor-like kinase 1, TGF-β type I receptor) (from UniProt P37023 22-503)",binds,binds
TβRII-HA (TGF-β type II receptor) (from UniProt P37173 23-567),binds,binds
B1,binds,binds
